The target in assay [1] is p38 MAPKα isoform (MAPK14) (Homo sapiens, UniProt Q16539). The assay can be described thus: p38 MAPKα enzyme inhibition (Z-LYTE FRET). Format: biochemical. Particulars: read-out: p38 MAPKα (Enzyme Profile); Table 2B, unit inferred.
Assay [2] addresses p38MAPKγ (MAPK12) (Homo sapiens, UniProt P53778). The experiment in a line: p38 MAPKγ enzyme inhibition (Z-LYTE FRET). Format: biochemical. Particulars: read-out: p38 MAPKγ (Enzyme Profile); Table 2B, unit inferred.

By UniProt entry, the sequences of proteins in these tests, tags left out.
UniProt Q16539, whole entry: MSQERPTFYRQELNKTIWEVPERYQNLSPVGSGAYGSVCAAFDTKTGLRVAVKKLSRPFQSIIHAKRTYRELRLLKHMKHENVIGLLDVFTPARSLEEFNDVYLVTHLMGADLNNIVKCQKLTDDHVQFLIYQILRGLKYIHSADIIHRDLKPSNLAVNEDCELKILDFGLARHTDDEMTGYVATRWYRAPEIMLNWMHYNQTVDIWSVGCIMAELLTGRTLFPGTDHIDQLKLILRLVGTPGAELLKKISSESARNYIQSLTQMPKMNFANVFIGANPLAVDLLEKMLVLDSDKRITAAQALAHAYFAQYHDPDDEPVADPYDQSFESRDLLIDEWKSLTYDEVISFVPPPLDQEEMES
UniProt P53778, whole entry: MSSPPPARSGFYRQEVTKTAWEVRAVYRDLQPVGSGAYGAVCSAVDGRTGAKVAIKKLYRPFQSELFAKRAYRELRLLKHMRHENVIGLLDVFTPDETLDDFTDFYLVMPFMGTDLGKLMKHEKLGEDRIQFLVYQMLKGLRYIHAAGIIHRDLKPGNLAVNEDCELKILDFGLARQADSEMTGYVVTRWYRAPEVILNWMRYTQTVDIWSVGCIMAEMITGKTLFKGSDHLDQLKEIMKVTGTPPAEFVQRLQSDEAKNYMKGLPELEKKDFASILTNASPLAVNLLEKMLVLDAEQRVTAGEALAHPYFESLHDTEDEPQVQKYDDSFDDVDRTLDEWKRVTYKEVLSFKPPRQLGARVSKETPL

Our source for the IC50 values is patent US11142515B2, “Pyrazolyl-ureas as kinase inhibitors” (RESPIVERT LIMITED, priority 2014, dated 2021).

Structures were worked out from names or drawings and are uncertain.

As for `Cc1ccc(-n2nc(C(C)(C)C)cc2NC(=O)Nc2ccc(OCc3ccnc(Nc4cnc(C(=O)N5CCCC5)cn4)c3)c3ccccc23)cc1` [Example 36], the IC50 in assay [1] stood at 23 nM; in assay [2] it was 3120 nM.
